In PubChem BioAssay AID504834 (National Center for Advancing Translational Sciences (NCATS), 2011):
Hit rate of the full screen: of about 320,000 compounds, about 22,000 (6.9%) were called active. Inconclusive means that the source gave no clear call. Such entries were picked first, then a sample of the others. Calls come from the whole dose curve; as a rule, active = well fitted inhibition curve with a large enough effect; inconclusive = small, poorly fitted or top-dose-only effect, or another doubt; inactive = no such curve, though single readings can be large or run the other way. Potencies of inconclusive entries are doubtful fits and often do not repeat.

Test: Primary qHTS for delayed death inhibitors of the malarial parasite plastid, 96 hour incubation
Details: P. falciparum luciferase reporter growth; series mostly up to 28.7 µM; activity change, negative = inhibition: at the top concentration
How it was run: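 Plates of compound plus infected erythrocytes (2% hematocrit, 0.05% parasitemia final) incubate 96 hours, 37 C, 5% CO2. Detection reagent added; reduced luminescence from the parasites' luciferase reporter flags inhibition.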
% is set by controls: 0 for no effect and ±100 for the full control effect; potency is the fitted concentration of half-maximal effect.

| SMILES | Potency | activity change, negative = inhibition |
| --- | --- | --- |
| CCSc1sccc1C1C(C#N)=C(N)N(c2cccnc2)C2=C1C(=O)CC(C)(C)C2 (stereo not drawn) | inconclusive: 0.329 µM [inhibitor, full curve, poor fit] |  |
| Cc1ccc(N)c(C(=O)c2ccc(Br)cc2)c1 |  | inactive: -7.24% |
| CCc1cc(C(=O)Nc2cc(S(=O)(=O)N(CC)CC)ccc2N2CCOCC2)sc1C | active: 9.28 µM |  |
| COc1ccc(-c2nnc(SCC(=O)N3CCCCC3)o2)cc1OC | inconclusive: 18.5 µM [inhibitor, single point] |  |
| CCC(CC)C(=O)OCC(=O)Nc1ccc(S(=O)(=O)N2CCOCC2)cc1OC |  | inactive: 30.6% |
| O=C(CN(C(=O)c1csnn1)c1ccc(Br)cc1)NC1CCCCC1 |  | inactive: 19.5% |
| CCOc1cc(N2CCOCC2)c(OCC)cc1NC(=O)CN1C(=O)NC(C)(C2CC2)C1=O (stereo not drawn) | inconclusive: 18.5 µM [inhibitor, single point] |  |
| CCN(C(=O)COC(=O)CN(C)S(=O)(=O)c1ccc(NC(C)=O)cc1)C1CCS(=O)(=O)C1 (stereo not drawn) |  | inactive: 39.6% |
| O=C(O)Cc1ccc(NC(=O)c2ccc3c(c2)C(=O)N(Cc2ccco2)C3=O)cc1 | inconclusive: 4.65 µM [inhibitor, single point] |  |
| O=C(CSc1ccsc1[N+](=O)[O-])N1CCN(c2ccccn2)CC1 | inconclusive: 0.0928 µM [inhibitor, full curve, poor fit] |  |
| COc1ccccc1C(=O)N1CCN(C(=O)c2oc3ccc(C)cc3c2C)CC1 | inconclusive: 2.33 µM [inhibitor, partial curve, poor fit] |  |
| Cc1ccnc(NS(=O)(=O)c2ccc(NC(=O)c3ccc(S(=O)(=O)N4CCOCC4)cc3)cc2)n1 |  | inactive: -31.3% |
| CCOC(=O)c1ccc(-n2c(CN3CCC(C(N)=O)CC3)nc3ccc([N+](=O)[O-])cc3c2=O)cc1 | inconclusive: 5.22 µM [inhibitor, single point] |  |
| COc1ccc(C(=O)Nn2c(SCC(=O)c3ccc(Cl)cc3)nc3ccccc3c2=O)cc1 | inconclusive: 18.5 µM [inhibitor, single point] |  |
| COc1cc2[nH]c3c(Cl)ncnc3c2cc1OC | inconclusive: 16.5 µM [inhibitor, single point] |  |
| Cc1ccc(C(=O)N2CCN(S(=O)(=O)c3ccccc3[N+](=O)[O-])CC2)o1 |  | inactive: -9.33% |
| CCN1C(=O)[C@H]2[C@@H](c3ccc(C)cc3)N3C(=O)N(c4cccc(C)c4)C(=O)[C@@]3(Cc3ccccc3)[C@H]2C1=O | inconclusive: 14.7 µM [inhibitor, partial curve, poor fit] |  |
| COc1ccc(-c2noc(CN3CCN(c4ccccc4)CC3)n2)cc1 | inconclusive: 13.1 µM [inhibitor, partial curve] |  |
| Cc1ccsc1C(=O)NN=C1CCCCCC1 | inconclusive: 0.104 µM [inhibitor, partial curve, poor fit] |  |
| CCOC(=O)C1=C(C)N(C)C(=O)NC1c1cccc(O)c1 (stereo not drawn) | inconclusive: 4.15 µM [inhibitor, full curve, poor fit] |  |
| O=S(=O)(c1ccc2c(c1)CCN2)N1CCCC1 | inconclusive: 0.928 µM [inhibitor, partial curve, poor fit] |  |
| COc1ccc(S(N)(=O)=O)cc1C(=O)NCCCN1CCN(c2ccccc2OC)CC1 | inconclusive: 18.5 µM [inhibitor, single point] |  |
| Cc1ccc(CCSc2ccc(F)cc2)cn1 | inconclusive: 18.5 µM [inhibitor, single point] |  |

| SMILES | Potency | activity change, negative = inhibition |
| --- | --- | --- |
| COc1cc(/C=N/NC(=O)c2ccc(CSc3nc4ccccc4[nH]3)cc2)ccc1O | inconclusive: 0.415 µM [inhibitor, full curve] |  |
| Cc1ccc(/C=N/NC(=O)c2nnn(-c3nonc3N)c2-c2cccs2)cc1 | inconclusive: 1.47 µM [inhibitor, partial curve, poor fit] |  |
| O=C(NCc1ccco1)c1cc(=O)c2ccccc2o1 | inconclusive: 18.5 µM [inhibitor, single point] |  |
| Cc1c2cnn(CC(=O)NCc3ccccn3)c(=O)c2c(C)n1Cc1ccccc1 | inconclusive: 18.5 µM [inhibitor, single point] |  |
| Cc1cc(CC(=O)O)c(C)cc1CC(=O)O |  | inactive: -15.7% |
| CC(=O)N1c2ccc(S(=O)(=O)N3CCCC3)cc2CC1C(=O)NCc1ccc(N(C)C)cc1 (stereo not drawn) | active: 6.57 µM |  |
| O=C(Nc1ccc(Br)cc1C(=O)O)c1ccc2c(c1)C(=O)N(Cc1ccccc1)C2=O | inconclusive: 18.5 µM [inhibitor, single point] |  |
| O=c1c2c(nc3nc(SCc4ccccc4)[nH]n13)CCC2 | inconclusive: 0.828 µM [inhibitor, full curve, poor fit] |  |
| COc1ccc(C(=O)N2CCN(Cc3ccc4c(c3)OCO4)CC2)cc1[N+](=O)[O-] |  | inactive: 0.648% |
| CCN(CC)c1ccc(C2NCC(c3ccc([N+](=O)[O-])cc3)O2)cc1 (stereo not drawn) | inconclusive: 2.94 µM [inhibitor, full curve] |  |
| CCNS(=O)(=O)c1ccc(NC(=O)Nc2ccccc2OC)cc1 |  | inactive: 10.1% |
| COc1cccc(/C=C2/SC(=S)N(CC(=O)NNC(=O)c3ccccc3OC)C2=O)c1 | inconclusive: 18.5 µM [inhibitor, single point] |  |
| Brc1cc(Br)c2ncnc(N3CCCCC3)c2c1 | inconclusive: 9.28 µM [inhibitor, partial curve, poor fit] |  |
| Cc1cc(N2CCN(c3ccc([N+](=O)[O-])c4cccnc34)CC2)c2ccccc2n1 | active: 7.38 µM |  |
| COc1ccc(C(=O)Nc2ccc(C(=O)N3CCCC3)cc2)cc1[N+](=O)[O-] |  | inactive: 63.5% |
| O=C(COc1ccccc1Cl)NC1CC1 | inconclusive: 18.5 µM [inhibitor, single point] |  |
| CCOc1ccc(-c2cc(N)n(S(=O)(=O)c3cccc4nsnc34)n2)cc1 | inconclusive: 18.5 µM [inhibitor, single point] |  |
| Cc1cccc(-c2nsc(SCC(=O)NCc3ccc4c(c3)OCO4)n2)c1 |  | inactive: 49.3% |
| C/C(=N\NC(=O)C(c1ccccc1)c1ccccc1)c1ccccn1 | active: 2.33 µM |  |
| COc1ccccc1C(=O)N(C)c1nnc(-c2ccccc2)s1 | inconclusive: 18.5 µM [inhibitor, single point] |  |
| CCOC(=O)CCn1cc(F)c(=O)[nH]c1=O | inconclusive: 3.29 µM [inhibitor, partial curve] |  |
| Cc1cc2cc(CNS(=O)(=O)c3ccccc3)ccc2n1C | inconclusive: 10.4 µM [inhibitor, partial curve, poor fit] |  |

Random excerpt: 2 compounds from above

| SMILES | Potency | activity change, negative = inhibition |
| --- | --- | --- |
| COc1cc(/C=N/NC(=O)c2ccc(CSc3nc4ccccc4[nH]3)cc2)ccc1O | inconclusive: 0.415 µM [inhibitor, full curve] |  |
| COc1ccc(C(=O)Nc2ccc(C(=O)N3CCCC3)cc2)cc1[N+](=O)[O-] |  | inactive: 63.5% |

Continued.

| SMILES | Potency | activity change, negative = inhibition |
| --- | --- | --- |
| Cc1onc(-c2ccccc2)c1C(=O)OCC(=O)Nc1cccc(Cl)c1 | inconclusive: 11.7 µM [inhibitor, single point] |  |
| CC1CCN(c2nc3ccc(C(=O)N4CCN(Cc5ccccc5)CC4)cc3s2)CC1 |  | inactive: -17.3% |
| COc1ccc(-c2cc(C)no2)cc1S(=O)(=O)N1CCCN(Cc2ccccc2Cl)C1 | active: 11.7 µM |  |
| COc1ccc(NC(=O)CSc2nc3c(c(=O)n2-c2ccc(C)cc2)SCC3)c(OC)c1 | inconclusive: 0.0522 µM [inhibitor, full curve, poor fit] |  |
| COc1ccc(N2C(N)=C(C#N)C(c3ccsc3)C3=C2CCCC3=O)c(OC)c1 (stereo not drawn) | active: 3.7 µM |  |
| CN(C)CCNc1nc2c(c(=O)[nH]c(=O)n2C)n1CCCc1ccccc1 | inconclusive: 18.5 µM [inhibitor, single point] |  |
| O=C(CSc1ccc2c(c1)OCCO2)Nc1cccc(S(=O)(=O)N2CCCCC2)c1 | inconclusive: 18.5 µM [inhibitor, single point] |  |
| Brc1ccc(-c2nnc3c4ccccc4nc(N4CCOCC4)n23)cc1 |  | inactive: 48.6% |
| Cc1cc(=O)n2nc(N3CCC(C(=O)NC4CCCc5ccccc54)CC3)sc2n1 (stereo not drawn) | active: 0.586 µM |  |
| O=S(=O)(NCCOC12CC3CC(CC(C3)C1)C2)c1cccc2nsnc12 |  | inactive: -28.8% |
| O=C1C=C(NCc2ccco2)CC(c2ccc(Cl)cc2)C1 (stereo not drawn) |  | inactive: -11.9% |
| COc1ccc(NS(=O)(=O)c2cc(C(=O)N3CCN(C/C=C/c4ccccc4)CC3)ccc2C)cc1 | inconclusive: 6.57 µM [inhibitor, partial curve] |  |
| COC(=O)c1cc2c(=O)n3ccccc3nc2n(C)c1=N | inconclusive: 0.522 µM [inhibitor, full curve, poor fit] |  |
| COc1ccc(C(=O)ON=C2C=C(C)C(=O)C(C)=C2)cc1 | inconclusive: 13.1 µM [inhibitor, single point] |  |
| CCOc1cc(/C=N/n2c(COc3ccccc3)n[nH]c2=S)ccc1O | inconclusive: 16.5 µM [inhibitor, partial curve, poor fit] |  |
| O=C(NCc1ccccc1)c1ccc(CN(c2ccccn2)S(=O)(=O)c2ccccc2)cc1 | inconclusive: 0.0029 µM [inhibitor, full curve, poor fit] |  |
| Cc1onc(-c2ccccc2)c1C(=O)N/N=C/c1cc(Br)c(Br)o1 | active: 13.1 µM |  |
| COC(=O)c1sccc1NC(=S)N1CCC(C(N)=O)CC1 |  | inactive: 0.299% |
| O=C(c1ccco1)N1N=C(c2ccco2)CC1c1ccc(Cl)cc1Cl (stereo not drawn) | active: 4.15 µM |  |
| Cc1onc(-c2ccc(Cl)cc2Cl)c1-c1csc(N/N=C/c2ccccc2)n1 | inconclusive: 5.22 µM [inhibitor, partial curve, poor fit] |  |
| Cn1cnnc1SCC(=O)Nc1ccc(S(=O)(=O)N2CCOCC2)cc1 | inconclusive: 6.57 µM [inhibitor, partial curve, poor fit] |  |
| COc1ccc(NC(=O)CCNS(=O)(=O)c2ccc3c(c2)CCC(=O)N3)cc1 | inconclusive: 4.65 µM [inhibitor, partial curve, poor fit] |  |

Rewritten comma-delimited: part of the list above.
SMILES,Potency,"activity change, negative = inhibition"
COc1ccc(NC(=O)CSc2nc3c(c(=O)n2-c2ccc(C)cc2)SCC3)c(OC)c1,"inconclusive: 0.0522 µM [inhibitor, full curve, poor fit]",
COc1ccc(N2C(N)=C(C#N)C(c3ccsc3)C3=C2CCCC3=O)c(OC)c1 (stereo not drawn),active: 3.7 µM,
